# Laboratory results from the supplement of paper PMC8728848.
# This is one part of the list.
# Key:
# Assay in all cases: glycan array binding signal (z-score within array); higher = stronger binding
# Conditions in all cases: glycan notation: IUPAC condensed, linker removed
# [1] = biological target: Fuc(a1-3)[Gal3S(b1-4)]GlcNAc6S
# In short: (§1)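 Glycan array data were curated from 3228 arrays in the Consortium for Functional Glycomics database and kept only where the protein sequence was available. Glycan names were converted to IUPAC-condensed notation, and columns mapping to the same glycan were averaged. The binding signal is a within-array Z-score, averaged across arrays of the same protein sequence at different concentrations or buffers and across linkers. Negative Z-scores can be read as non-binding.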
# [2] = biological target: Fuc(a1-3)[GalNAc(b1-4)]GlcNAc
# In short: as §1
# [3] = biological target: Fuc(a1-3)[GalNAc(b1-4)]GlcNAc6S
# In short: as §1
# Fuc(a1-4)GlcNAc = biological target: Fuc(a1-4)GlcNAc
# In short: as §1
# Fuc(b1-3)GlcNAc = biological target: Fuc(b1-3)GlcNAc
# In short: as §1
# Gal(a1-2)Gal = biological target: Gal(a1-2)Gal
# In short: as §1
# Gal(a1-3)Gal = biological target: Gal(a1-3)Gal
# In short: as §1
# Gal(a1-3)Gal(b1-3)GlcNAc = biological target: Gal(a1-3)Gal(b1-3)GlcNAc
# In short: as §1
# [4] = biological target: Gal(a1-3)Gal(b1-3)GlcNAc(b1-2)Man
# In short: as §1
# [5] = biological target: Gal(a1-3)Gal(b1-3)GlcNAc(b1-2)Man(a1-3)[Gal(a1-3)Gal(b1-3)GlcNAc(b1-2)Man(a1-6)]Man(b1-4)GlcNAc(b1-4)GlcNAc
# In short: as §1
# [6] = biological target: Gal(a1-3)Gal(b1-3)GlcNAc(b1-3)GalNAc
# In short: as §1
# [7] = biological target: Gal(a1-3)Gal(b1-3)GlcNAc(b1-6)GalNAc
# In short: as §1
# [8] = biological target: Gal(a1-3)Gal(b1-3)[Fuc(a1-4)]GlcNAc(b1-2)Man(a1-3)[Gal(a1-3)Gal(b1-3)[Fuc(a1-4)]GlcNAc(b1-2)Man(a1-6)]Man(b1-4)GlcNAc(b1-4)GlcNAc
# In short: as §1
# Gal(a1-3)Gal(b1-4)Glc = biological target: Gal(a1-3)Gal(b1-4)Glc
# In short: as §1
# Gal(a1-3)Gal(b1-4)GlcNAc = biological target: Gal(a1-3)Gal(b1-4)GlcNAc
# In short: as §1
# [9] = biological target: Gal(a1-3)Gal(b1-4)GlcNAc(b1-2)Man
# In short: as §1
# [10] = biological target: Gal(a1-3)Gal(b1-4)GlcNAc(b1-2)Man(a1-3)[Gal(a1-3)Gal(b1-4)GlcNAc(b1-2)Man(a1-6)]Man(b1-4)GlcNAc(b1-4)GlcNAc
# In short: as §1
# [11] = biological target: Gal(a1-3)Gal(b1-4)GlcNAc(b1-3)GalNAc
# In short: as §1
# [12] = biological target: Gal(a1-3)Gal(b1-4)GlcNAc(b1-6)GalNAc
# In short: as §1
# [13] = biological target: Gal(a1-3)Gal(b1-4)[Fuc(a1-3)]GlcNAc
# In short: as §1
# [14] = biological target: Gal(a1-3)Gal(b1-4)[Fuc(a1-3)]GlcNAc(b1-2)Man(a1-3)[Gal(a1-3)Gal(b1-4)[Fuc(a1-3)]GlcNAc(b1-2)Man(a1-6)]Man(b1-4)GlcNAc(b1-4)GlcNAc
# In short: as §1
# Gal(a1-3)GalNAc = biological target: Gal(a1-3)GalNAc
# In short: as §1
# [15] = biological target: Gal(a1-3)[Gal(a1-4)]Gal(b1-4)GlcNAc
# In short: as §1
# [16] = biological target: Gal(a1-4)Gal(b1-3)GlcNAc(b1-2)Man(a1-3)[Gal(a1-4)Gal(b1-3)GlcNAc(b1-2)Man(a1-6)]Man(b1-4)GlcNAc(b1-4)GlcNAc
# In short: as §1
# Gal(a1-4)Gal(b1-4)Glc = biological target: Gal(a1-4)Gal(b1-4)Glc
# In short: as §1
# Gal(a1-4)Gal(b1-4)GlcNAc = biological target: Gal(a1-4)Gal(b1-4)GlcNAc
# In short: as §1
# [17] = biological target: Gal(a1-4)Gal(b1-4)GlcNAc(b1-2)Man(a1-3)[Gal(a1-4)Gal(b1-4)GlcNAc(b1-2)Man(a1-6)]Man(b1-4)GlcNAc(b1-4)GlcNAc
# In short: as §1
# [18] = biological target: Gal(a1-4)Gal(b1-4)GlcNAc(b1-3)Gal(b1-4)Glc
# In short: as §1
# Gal(a1-4)GlcNAc = biological target: Gal(a1-4)GlcNAc
# In short: as §1
# Gal(a1-6)Glc = biological target: Gal(a1-6)Glc
# In short: as §1
# Gal(b1-2)Gal = biological target: Gal(b1-2)Gal
# In short: as §1
# Gal(b1-3)Gal = biological target: Gal(b1-3)Gal
# In short: as §1
# Gal(b1-3)Gal(b1-4)GlcNAc = biological target: Gal(b1-3)Gal(b1-4)GlcNAc
# In short: as §1
# Gal(b1-3)GalNAc = biological target: Gal(b1-3)GalNAc
# In short: as §1
# [19] = biological target: Gal(b1-3)GalNAc(a1-3)[Fuc(a1-2)]Gal(b1-4)Glc
# In short: as §1
# [20] = biological target: Gal(b1-3)GalNAc(a1-3)[Fuc(a1-2)]Gal(b1-4)GlcNAc
# In short: as §1
# Gal(b1-3)GalNAc(b1-3)Gal = biological target: Gal(b1-3)GalNAc(b1-3)Gal
# In short: as §1
binder,measurement,setting,value
PX14404-bvu-534-26-534 (Bacteroides vulgatus) (protein) EDPRGKLTPENFFSTQDELNMSIYALYQKVNLSQVYTNMQLPQWQGDDITTNPGSNKQPAAEMDKFAAANNNKGVKDAWNMHYAIVKAANLIIQGASKTPTTQDEINIALGQAKFWRAYAYFTLVRLWGPLPMNLDNVNDDYTKPLSPVEEVYGHIVQDLTEAEAVLPTGYSGSPRFLNGVNVYVTRQAAKSTLAAVYMAMAGWPMNKTEYYAKAAEKAKEVIEGVNRGEYEYKLDKDYKDVYAMSNNYNNETVLGINYSPFVDWAQDSELTSCNQFESLGGWGDAWGEIRFWKEFPDGPRKDATYDPKIRLKDGTLVDWWELKEDGTPVVPEHHPMFSIFSVNWDPASKVNTSAPYDYTKPASQNMCNDHRHRIIRYSEVLLWYAEAKARTGQTDELAFKCLNDVRERAGLEPLTGLSADDLAEAAYKEHGWEVAGYWVALVTRRADQFRMNRLKDTFKERAENTAVEVADGILVKESVEYTNRTWSDNLMYLPYPDMDSQKNPNLVR,glycan array binding signal (z-score),[1],-1.18
same,glycan array binding signal (z-score),[2],1.15
same,glycan array binding signal (z-score),[3],1.21
same,glycan array binding signal (z-score),Fuc(a1-4)GlcNAc,-0.669
same,glycan array binding signal (z-score),Fuc(b1-3)GlcNAc,-0.374
same,glycan array binding signal (z-score),Gal(a1-2)Gal,-0.738
same,glycan array binding signal (z-score),Gal(a1-3)Gal,-0.042
same,glycan array binding signal (z-score),Gal(a1-3)Gal(b1-3)GlcNAc,-0.454
same,glycan array binding signal (z-score),[4],-0.405
same,glycan array binding signal (z-score),[5],1.2
same,glycan array binding signal (z-score),[6],-0.041
same,glycan array binding signal (z-score),[7],-0.446
same,glycan array binding signal (z-score),[8],1.79
same,glycan array binding signal (z-score),Gal(a1-3)Gal(b1-4)Glc,0.053
same,glycan array binding signal (z-score),Gal(a1-3)Gal(b1-4)GlcNAc,-0.582
same,glycan array binding signal (z-score),[9],-0.34
same,glycan array binding signal (z-score),[10],0.072
same,glycan array binding signal (z-score),[11],-0.423
same,glycan array binding signal (z-score),[12],-0.701
same,glycan array binding signal (z-score),[13],-1.29
same,glycan array binding signal (z-score),[14],-1.05
same,glycan array binding signal (z-score),Gal(a1-3)GalNAc,-0.314
same,glycan array binding signal (z-score),[15],3.57
same,glycan array binding signal (z-score),[16],-1.1
same,glycan array binding signal (z-score),Gal(a1-4)Gal(b1-4)Glc,1.03
same,glycan array binding signal (z-score),Gal(a1-4)Gal(b1-4)GlcNAc,0.698
same,glycan array binding signal (z-score),[17],-0.464
same,glycan array binding signal (z-score),[18],-0.227
same,glycan array binding signal (z-score),Gal(a1-4)GlcNAc,1.74
same,glycan array binding signal (z-score),Gal(a1-6)Glc,0.273
same,glycan array binding signal (z-score),Gal(b1-2)Gal,-0.94
same,glycan array binding signal (z-score),Gal(b1-3)Gal,-0.984
same,glycan array binding signal (z-score),Gal(b1-3)Gal(b1-4)GlcNAc,0.873
same,glycan array binding signal (z-score),Gal(b1-3)GalNAc,-0.314
same,glycan array binding signal (z-score),[19],0.069
same,glycan array binding signal (z-score),[20],-0.591
same,glycan array binding signal (z-score),Gal(b1-3)GalNAc(b1-3)Gal,-0.619

# 3 entries from above, with tabs:
binder	measurement	setting	value
PX14404-bvu-534-26-534 (Bacteroides vulgatus) (protein) EDPRGKLTPENFFSTQDELNMSIYALYQKVNLSQVYTNMQLPQWQGDDITTNPGSNKQPAAEMDKFAAANNNKGVKDAWNMHYAIVKAANLIIQGASKTPTTQDEINIALGQAKFWRAYAYFTLVRLWGPLPMNLDNVNDDYTKPLSPVEEVYGHIVQDLTEAEAVLPTGYSGSPRFLNGVNVYVTRQAAKSTLAAVYMAMAGWPMNKTEYYAKAAEKAKEVIEGVNRGEYEYKLDKDYKDVYAMSNNYNNETVLGINYSPFVDWAQDSELTSCNQFESLGGWGDAWGEIRFWKEFPDGPRKDATYDPKIRLKDGTLVDWWELKEDGTPVVPEHHPMFSIFSVNWDPASKVNTSAPYDYTKPASQNMCNDHRHRIIRYSEVLLWYAEAKARTGQTDELAFKCLNDVRERAGLEPLTGLSADDLAEAAYKEHGWEVAGYWVALVTRRADQFRMNRLKDTFKERAENTAVEVADGILVKESVEYTNRTWSDNLMYLPYPDMDSQKNPNLVR	glycan array binding signal (z-score)	Gal(a1-4)Gal(b1-4)GlcNAc	0.698
same	glycan array binding signal (z-score)	[17]	-0.464
same	glycan array binding signal (z-score)	[18]	-0.227
